About 6,100 (1.1%) of roughly 580,000 compounds were called active. Inconclusive results, whose numbers are uncertain, are shown with a selection of clear calls. The call rests on the fitted dose curve; in most records, active means well fitted inhibition curve with a large enough effect; inconclusive means small, poorly fitted or top-dose-only effect, or another doubt; inactive means no such curve, though single readings can be large or run the other way. Potencies of inconclusive entries are doubtful fits and often do not repeat.
The compounds below were run against Polyunsaturated fatty acid lipoxygenase ALOX12 (Homo sapiens) (UniProt P18054) (assay: Primary qHTS assay for inhibitors of human arachidonate 12S-lipoxygenase (ALOX12): Round 2). Conditions: purified 12hLO, xylenol orange hydroperoxide absorbance; activity change, negative = inhibition: at 108 µM (top of the series) unless noted.
Procedure, shortened: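 Purified human 12hLO at 150 nM in 25 mM Hepes, 0.01% Triton X-100, pH 7.0, preincubated 15 min at room temperature with compound. Reaction started with 40 uM arachidonic acid, 30 min at room temperature. Hydroperoxide measured by Fe-xylenol orange, 573/405 nm absorbance ratio.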
On the % scale 0 is the no-effect control and ±100 the full control effect; potency means the concentration at half of the fitted maximal effect.

The chains behind the UniProt entries cited, without tags or fusion partners. Where a name states a change or a piece, a line headed by the entry shows the natural chain unless it says otherwise.
UniProt P18054: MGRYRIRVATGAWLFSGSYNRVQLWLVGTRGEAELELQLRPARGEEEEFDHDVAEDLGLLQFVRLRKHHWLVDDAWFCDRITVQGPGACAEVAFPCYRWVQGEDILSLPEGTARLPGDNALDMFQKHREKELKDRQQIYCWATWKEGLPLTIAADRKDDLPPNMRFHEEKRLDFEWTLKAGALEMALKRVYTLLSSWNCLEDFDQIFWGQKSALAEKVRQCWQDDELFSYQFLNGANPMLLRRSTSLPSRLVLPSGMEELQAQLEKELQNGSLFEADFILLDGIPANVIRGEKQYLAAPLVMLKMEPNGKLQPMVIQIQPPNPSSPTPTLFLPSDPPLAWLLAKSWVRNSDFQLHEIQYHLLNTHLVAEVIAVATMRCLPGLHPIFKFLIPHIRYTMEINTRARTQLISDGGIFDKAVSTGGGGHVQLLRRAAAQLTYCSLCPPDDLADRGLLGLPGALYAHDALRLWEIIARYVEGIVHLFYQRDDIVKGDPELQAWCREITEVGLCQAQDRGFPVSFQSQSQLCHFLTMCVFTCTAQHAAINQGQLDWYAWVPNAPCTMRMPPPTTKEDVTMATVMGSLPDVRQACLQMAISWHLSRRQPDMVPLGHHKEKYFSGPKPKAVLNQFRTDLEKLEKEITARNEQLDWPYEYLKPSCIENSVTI

SMILES	Potency	activity change, negative = inhibition
CCC(=O)Nc1nc(C)c(C(=O)Nc2cccc(Cl)c2)s1	inconclusive: 35.5 µM [inhibitor, partial curve, poor fit]	
COc1ccccc1C(=O)NC(=S)Nc1cccc2cc(O)ccc12		inactive: 402%
CCCCN(CCCC)CC(O)c1cc(Cl)cc2c1-c1ccc(Cl)cc1C2=Cc1ccc(Cl)cc1 (centres undefined)	inconclusive: 0.137 µM [inhibitor, full curve, poor fit]	
Oc1ccc(-c2nc(C3CC3)nc3c2CN(Cc2ccsc2)CC3)cc1	inconclusive: 79.4 µM [inhibitor, single point]	
Cc1ccc(S(=O)(=O)n2cc(-c3ccccc3)c(N)n2)cc1	inconclusive: 89.1 µM [inhibitor, partial curve, poor fit]	
COc1ccc(-c2cc3nc(-c4ccccc4)cc(C(F)(F)F)n3n2)cc1	inconclusive: 126 µM [inhibitor, partial curve, poor fit]	
O=C(COc1ccc2c3c(c(=O)oc2c1)CCC3)NC1CCCCC1	inconclusive: 44.7 µM [inhibitor, partial curve, poor fit]	
Cc1oc(-c2cccs2)nc1CC(=O)NCc1ccc2c(c1)OCO2	inconclusive: 100 µM [inhibitor, single point]	
CC(C)Cc1nc(N2CCOCC2)c(C#N)c2c1COC(C)(C)C2	inconclusive: 126 µM [inhibitor, single point]	
COC(=O)C1=NNC2C(=O)N(c3ccc(C)cc3)C(=O)C12 (centres undefined)	inconclusive: 28.2 µM [inhibitor, single point]	
CC(=O)Nc1ccc(SC(C)C(=O)c2ccc3c(c2)CCC3)cc1 (centres undefined)	inconclusive: 28.2 µM [inhibitor, partial curve, poor fit]	
Cc1ccc(NCC(=O)Nc2ccc(Br)cc2)cc1C		inactive: 238%
CC1CCCCC12NC(=O)N(CC(=O)c1ccc(Cl)s1)C2=O (centres undefined)	inconclusive: 50.1 µM [inhibitor, partial curve, poor fit]	
CCOc1ccc(-c2nnc(SCC(=O)NC3CCCC3)nc2-c2ccc(OCC)c(OC)c2)cc1OC		inactive: -17.9%
COC(=O)C1CN(Cc2cn(Cc3ccc(Cl)cc3)nn2)CCS(=O)(=O)N1Cc1ccc(Cl)cc1 (centres undefined)	inconclusive: 31.6 µM [inhibitor, full curve, poor fit]	
COc1cccc(C(=O)N2CCN(Cc3ccccc3[N+](=O)[O-])CC2)c1	inconclusive: 0.562 µM [inhibitor, full curve, poor fit]	
O=C(O)c1cc(N2N=C(C(F)(F)F)/C(=C/C=C/c3ccco3)C2=O)ccc1Cl	active: 5.62 µM	
COCC1(CNS(=O)(=O)c2ccc(Cl)cc2)C[C@@H](O)[C@@H](O)C1 (some centres undefined)	inconclusive: 44.7 µM [inhibitor, partial curve]	
CCNc1ncc(C(=O)N[C@H](C2CCNCC2)C2CC(O)C2)cn1 (some centres undefined)	inconclusive: 17.8 µM [inhibitor, full curve, poor fit]	
O=C(OCc1ccccc1)N1CCOCC12CCN(Cc1ccc3[nH]ccc3c1)CC2	inconclusive: 20 µM [inhibitor, full curve, poor fit]	
CC(C)C[C@@H](CN1CCC[C@H]1CN1C(=O)C(=O)NC[C@@H]1Cc1ccc(O)cc1)N1C[C@H](Cc2ccccc2)N(CC2CCCCCC2)C(=O)C1=O	inconclusive: 79.4 µM [inhibitor, single point]	
COc1cccc(Nc2ncc3nc(-c4cccs4)c(=O)n(-c4ccccc4)c3n2)c1	inconclusive: 39.8 µM [inhibitor, partial curve, poor fit]	

SMILES	Potency	activity change, negative = inhibition
COC(=O)C(C)Sc1nnc(Cc2cc(=O)[nH]c(=O)[nH]2)n1-c1cccc(OC)c1 (centres undefined)	inconclusive: 0.708 µM [inhibitor, full curve, poor fit]	
COc1ccc2c(c1)cc(C(=O)NCc1ccccc1)n2C		inactive: -10.8%
CN(C)CCCN(Cc1ccccc1)C(=S)Nc1ccc(OC(F)F)cc1		inactive: -27%
COc1ccc([N+](=O)[O-])cc1NS(=O)(=O)c1cc(C(=O)NCc2cccnc2)ccc1Cl	inconclusive: 100 µM [inhibitor, single point]	
Cc1cccc(N2CCN(C(=O)c3ccc4nc(-c5ccco5)c(-c5ccco5)nc4c3)CC2C)c1 (centres undefined)		inconclusive: -49.6% [inhibitor]
Cc1cccc(N2CCN(C(=O)c3cc(S(=O)(=O)N4CCC(C)CC4)cn3C)CC2)c1C	inconclusive: 126 µM [inhibitor, single point]	
O=C(Nc1ccc(Cl)cc1)Nc1cccnc1		inactive: -28.6%
CC(C)(C)OC(=O)N1CCC(c2c(C(=O)NCCN3CCC(Cc4ccccc4)CC3)cnn2-c2cccc(Cl)c2)CC1	inconclusive: 15.8 µM [inhibitor, full curve, poor fit]	
Nc1ccn([C@@H]2O[C@H](CNCc3ccc(N4CCNCC4)cc3)[C@@H](O)[C@H]2O)c(=O)n1		inactive: -5.89%
CC(=O)c1cccc(NC(=S)N2CCc3ccccc32)c1	inconclusive: 50.1 µM [inhibitor, partial curve, poor fit]	
Cc1ccc(Cc2c(-c3cccc(Cl)c3)nc3ccc(Br)cn23)cc1	inconclusive: 44.7 µM [inhibitor, partial curve, poor fit]	
O=C(/C=C/c1ccccc1[N+](=O)[O-])NNC(=O)c1ccncc1		inactive: 27.2%
Cc1ccc(-n2cccc2CC(=O)NC(C)c2ccccn2)cc1 (centres undefined)		inactive: 0.847%
COc1ccc(OC)c(-c2csc(NC(=O)Cc3ccccc3OC)n2)c1	inconclusive: 112 µM [inhibitor, single point]	
CC1CN(C(=O)c2ccc(C(=O)c3ccccc3)cc2)CC(C)O1 (centres undefined)		inactive: -7%
CN(C)c1oc(-c2ccco2)nc1S(=O)(=O)c1ccc(F)cc1	inconclusive: 44.7 µM [inhibitor, partial curve, poor fit]	
CCc1ccc2c(CN3CCCC3c3ccc(OC)cc3)cc(=O)oc2c1 (centres undefined)	inconclusive: 50.1 µM [inhibitor, partial curve, poor fit]	
CCOC(=O)C1CCN(C(=O)c2cc3ccc4cccnc4c3[nH]2)CC1		inactive: 0%
O=C(O)c1cnn2c1NC(c1cccs1)CC2C(F)(F)F (centres undefined)	inconclusive: 14.1 µM [inhibitor, partial curve, poor fit]	
Cc1ccc(F)cc1-c1ccc(COc2ccc3c(cnn3CCC(=O)O)c2)cc1	inconclusive: 25.1 µM [inhibitor, full curve]	
CCCn1cnnc1CNC1CCC2(CCNCC2)CC1	inconclusive: 12.6 µM [inhibitor, full curve]	
COc1ccc(Cc2c(C3CCCCC3)nc3ccc(C)cn23)c(C)c1	inconclusive: 79.4 µM [inhibitor, partial curve, poor fit]	

Rewritten as a markdown table: entries from further up

| SMILES | Potency | activity change, negative = inhibition |
| --- | --- | --- |
| CCCn1cnnc1CNC1CCC2(CCNCC2)CC1 | inconclusive: 12.6 µM [inhibitor, full curve] |  |
| COc1ccc(Cc2c(C3CCCCC3)nc3ccc(C)cn23)c(C)c1 | inconclusive: 79.4 µM [inhibitor, partial curve, poor fit] |  |

One compound at a time, from the list above:
CCC(=O)Nc1nc(C)c(C(=O)Nc2cccc(Cl)c2)s1 as listed: Potency: inconclusive: 35.5 µM [inhibitor, partial curve, poor fit]
Nc1ccn([C@@H]2O[C@H](CNCc3ccc(N4CCNCC4)cc3)[C@@H](O)[C@H]2O)c(=O)n1 as listed: activity change, negative = inhibition: inactive: -5.89%

Additional records follow:

SMILES	Potency	activity change, negative = inhibition
Cn1c(-c2ccc3ccccc3c2)cc2ccccc21		inactive: -13.6%
CCn1c(SCc2nc(-c3ccccc3Cl)oc2C)nc2c(=O)[nH]cnc21	inconclusive: 56.2 µM [inhibitor, partial curve, poor fit]	
O=S(=O)(Nc1nc2ccccc2nc1N1CCN(c2ccccc2F)CC1)c1ccc(Cl)cc1	inconclusive: 100 µM [inhibitor, single point]	
CNC(=S)NC(C)C1CC2CCC1C2 (centres undefined)	inconclusive: 35.5 µM [inhibitor, single point]	
COc1ccc(C(=O)NNS(=O)(=O)c2ccccc2)cc1OC	inconclusive: 56.2 µM [inhibitor, partial curve, poor fit]	
O=C(O/N=C1\CCCc2oc3c(c21)CCCC3)c1ccc(Cl)cc1	inconclusive: 31.6 µM [inhibitor, partial curve]	
NC(=O)NC(=O)CCN1CCOC(c2ccc(Br)cc2)C1 (centres undefined)	inconclusive: 79.4 µM [inhibitor, single point]	
O=C(Cc1c(Cl)cccc1Cl)OCc1ccc(Cl)cc1Cl	inconclusive: 70.8 µM [inhibitor, partial curve, poor fit]	
CCCn1c(/N=C/c2c[nH]c3ccccc23)nc2ccccc21		inactive: -9.78%
O=C(COc1ccc(Br)cc1)OCCCC(=O)c1ccccc1		inactive: -27.1%
CC(NC(=O)CSc1nc(-c2cccs2)nc2ccccc12)c1ccco1 (centres undefined)		inactive: -18.3%
O=C(Nc1ccc(N2CCCC2)c(S(=O)(=O)Nc2cccc(C(F)(F)F)c2)c1)c1cccs1		inactive: -23.8%
COc1ccccc1CNC(=O)c1ccccc1NC(=O)c1nsc2ccccc12	inconclusive: 112 µM [inhibitor, partial curve, poor fit]	
CCOC(=O)c1[nH]c2ccccc2c1NC(=O)c1ccccc1OCC		inactive: -28%
CC1(C)Cc2c(sc3c2c(=O)n(CCCO)c(=O)n3CC(=O)c2ccccc2)CO1		inactive: 3.46%
CCN=C1NC(c2ccc(F)cc2)C(C(=O)OC)=C(C)N1Cc1ccc(C(F)(F)F)cc1 (centres undefined)	inconclusive: 44.7 µM [inhibitor, partial curve, poor fit]	
COC(=O)c1c(NC(=O)CN2CCOCC2)sc2c1CCC(C)C2 (centres undefined)	inconclusive: 50.1 µM [inhibitor, partial curve, poor fit]	
CCCCn1c(=O)n(CC(O)COc2ccc(C(C)(C)C)cc2)c(=O)c2c1ncn2CCOC (centres undefined)	inconclusive: 44.7 µM [inhibitor, partial curve, poor fit]	
CN1CC(=O)N(C2CCC2)Cc2c(NC3CCCCC3)ncnc21		inactive: 3.03% [at 176 µM]
O=C1c2ccc(-c3ccc(Cl)c(C(F)(F)F)c3)cc2S(=O)(=O)c2cccc(C(=O)N3CCN(c4ccc(Cl)cn4)CC3)c21	inconclusive: 25.1 µM [inhibitor, partial curve]	
